These are yes or no findings as the source states them, for the method shown.
Biological target: MeV-V_(CT221-299) (measles virus V protein, residues 221-299, containing the C-terminal domain) (measles virus (strain Ichinose-B95a)) (UniProt P0C774)
Test: SEC; last purification step of MeV-V_(CT221-299); mass from the standard curve 5.6 kDa (theoretical 9.2 kDa); both purified

B1: MeV-V_(CT221-299) (measles virus V protein, residues 221-299, containing the C-terminal domain) (domain or fragment)
chain: GPASTSETPIKKGHRREIGLIWNGDRVFIDRWCNPMCSKVTLGTIRARCTCGECPRVCEQCRTDTGVDTRIWYHNLPEIPE
notes: additional Gly and Pro before Ala221, left after HRV-3C protease digestion; 15N- or 13C,15N-labelled for the NMR experiments, unlabelled for ITC; Monomer by SEC; also called MeV-VCT construct; MeV-VCTD; source: E. coli BL21 star (DE3), purified (Glutathione Sepharose 4B, 3C protease elution, HisTrap, HIC, SEC); not shown: GST, N-terminal, cleaved
binding: no binding

From paper PMC12548473, “Solution structure of the C-terminal domain of the measles virus V protein in its free form and mechanistic analysis of STAT2 targeting” (Journal of Virology, 2025)
